Experimental data from paper PMC2583055.
Results are given in words; binding and its absence hold for the method and conditions named. Binding seen in cells or lysates may run through a third protein. Some binding calls cover weakened binding; strength is not graded here. Tags and fused reporters may be left off the sequences shown.

T1: vsv-tagged Canis familialis GEF-H1 (guanine nucleotide exchange factor H1) (Canis familialis) (UniProt Q865S3)
T1 sequence: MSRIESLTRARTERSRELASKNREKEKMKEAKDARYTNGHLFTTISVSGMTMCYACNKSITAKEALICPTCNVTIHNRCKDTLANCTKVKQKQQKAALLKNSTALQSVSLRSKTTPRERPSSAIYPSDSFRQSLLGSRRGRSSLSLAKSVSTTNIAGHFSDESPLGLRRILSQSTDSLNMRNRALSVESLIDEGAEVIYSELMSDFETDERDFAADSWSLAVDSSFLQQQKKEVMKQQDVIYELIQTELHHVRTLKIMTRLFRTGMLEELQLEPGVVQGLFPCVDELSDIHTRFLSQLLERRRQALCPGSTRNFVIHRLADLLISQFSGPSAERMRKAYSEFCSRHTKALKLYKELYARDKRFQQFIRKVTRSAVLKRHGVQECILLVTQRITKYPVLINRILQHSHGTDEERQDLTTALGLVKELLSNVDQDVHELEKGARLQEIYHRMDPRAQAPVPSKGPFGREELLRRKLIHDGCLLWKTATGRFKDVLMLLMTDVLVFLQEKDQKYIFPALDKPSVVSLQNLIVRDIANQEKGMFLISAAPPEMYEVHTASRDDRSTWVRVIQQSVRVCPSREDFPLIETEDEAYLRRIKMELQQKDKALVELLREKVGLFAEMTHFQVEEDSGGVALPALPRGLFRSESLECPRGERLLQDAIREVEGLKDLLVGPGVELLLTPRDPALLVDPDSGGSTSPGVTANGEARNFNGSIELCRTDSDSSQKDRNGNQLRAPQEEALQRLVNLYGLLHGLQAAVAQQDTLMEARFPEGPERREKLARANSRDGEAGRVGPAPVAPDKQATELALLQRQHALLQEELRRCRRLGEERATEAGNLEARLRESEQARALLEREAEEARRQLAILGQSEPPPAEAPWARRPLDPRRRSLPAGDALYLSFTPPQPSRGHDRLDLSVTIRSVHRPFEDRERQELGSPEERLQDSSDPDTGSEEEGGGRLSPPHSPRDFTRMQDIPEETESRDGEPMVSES

T2: HA-NOD1 (pCI-HA-CARD4 vector) (UniProt Q9Y239)
T2 sequence: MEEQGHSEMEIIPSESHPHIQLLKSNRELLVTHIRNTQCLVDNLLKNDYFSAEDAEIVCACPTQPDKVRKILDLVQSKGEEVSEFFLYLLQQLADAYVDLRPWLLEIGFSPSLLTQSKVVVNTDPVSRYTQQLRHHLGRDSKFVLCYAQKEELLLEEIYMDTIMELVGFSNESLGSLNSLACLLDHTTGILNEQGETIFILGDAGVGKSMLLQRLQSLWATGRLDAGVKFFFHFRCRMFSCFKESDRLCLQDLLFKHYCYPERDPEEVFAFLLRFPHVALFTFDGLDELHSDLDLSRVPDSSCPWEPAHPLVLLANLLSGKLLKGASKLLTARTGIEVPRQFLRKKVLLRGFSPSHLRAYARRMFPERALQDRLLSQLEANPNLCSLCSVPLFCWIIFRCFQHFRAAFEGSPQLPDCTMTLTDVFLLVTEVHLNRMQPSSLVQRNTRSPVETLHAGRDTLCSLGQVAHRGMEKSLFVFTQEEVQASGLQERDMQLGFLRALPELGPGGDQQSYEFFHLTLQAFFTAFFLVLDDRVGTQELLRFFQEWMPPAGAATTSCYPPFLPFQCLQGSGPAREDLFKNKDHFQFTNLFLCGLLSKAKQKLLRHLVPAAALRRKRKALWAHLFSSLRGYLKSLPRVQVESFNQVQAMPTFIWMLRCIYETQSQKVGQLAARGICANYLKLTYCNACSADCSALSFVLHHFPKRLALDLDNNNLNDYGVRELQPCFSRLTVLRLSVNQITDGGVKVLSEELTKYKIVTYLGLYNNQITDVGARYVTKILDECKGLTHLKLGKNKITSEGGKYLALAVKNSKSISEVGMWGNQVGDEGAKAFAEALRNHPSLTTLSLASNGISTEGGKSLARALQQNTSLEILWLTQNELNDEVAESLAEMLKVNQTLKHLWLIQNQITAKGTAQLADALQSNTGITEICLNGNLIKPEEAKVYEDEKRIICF

B1: HA-NOD1 (pCI-HA-CARD4 vector) (protein, UniProt Q9Y239 1-953)
chain: MEEQGHSEMEIIPSESHPHIQLLKSNRELLVTHIRNTQCLVDNLLKNDYFSAEDAEIVCACPTQPDKVRKILDLVQSKGEEVSEFFLYLLQQLADAYVDLRPWLLEIGFSPSLLTQSKVVVNTDPVSRYTQQLRHHLGRDSKFVLCYAQKEELLLEEIYMDTIMELVGFSNESLGSLNSLACLLDHTTGILNEQGETIFILGDAGVGKSMLLQRLQSLWATGRLDAGVKFFFHFRCRMFSCFKESDRLCLQDLLFKHYCYPERDPEEVFAFLLRFPHVALFTFDGLDELHSDLDLSRVPDSSCPWEPAHPLVLLANLLSGKLLKGASKLLTARTGIEVPRQFLRKKVLLRGFSPSHLRAYARRMFPERALQDRLLSQLEANPNLCSLCSVPLFCWIIFRCFQHFRAAFEGSPQLPDCTMTLTDVFLLVTEVHLNRMQPSSLVQRNTRSPVETLHAGRDTLCSLGQVAHRGMEKSLFVFTQEEVQASGLQERDMQLGFLRALPELGPGGDQQSYEFFHLTLQAFFTAFFLVLDDRVGTQELLRFFQEWMPPAGAATTSCYPPFLPFQCLQGSGPAREDLFKNKDHFQFTNLFLCGLLSKAKQKLLRHLVPAAALRRKRKALWAHLFSSLRGYLKSLPRVQVESFNQVQAMPTFIWMLRCIYETQSQKVGQLAARGICANYLKLTYCNACSADCSALSFVLHHFPKRLALDLDNNNLNDYGVRELQPCFSRLTVLRLSVNQITDGGVKVLSEELTKYKIVTYLGLYNNQITDVGARYVTKILDECKGLTHLKLGKNKITSEGGKYLALAVKNSKSISEVGMWGNQVGDEGAKAFAEALRNHPSLTTLSLASNGISTEGGKSLARALQQNTSLEILWLTQNELNDEVAESLAEMLKVNQTLKHLWLIQNQITAKGTAQLADALQSNTGITEICLNGNLIKPEEAKVYEDEKRIICF
B2: vsv-tagged Canis familialis GEF-H1 (guanine nucleotide exchange factor H1) (protein, UniProt Q865S3 1-986)
chain: MSRIESLTRARTERSRELASKNREKEKMKEAKDARYTNGHLFTTISVSGMTMCYACNKSITAKEALICPTCNVTIHNRCKDTLANCTKVKQKQQKAALLKNSTALQSVSLRSKTTPRERPSSAIYPSDSFRQSLLGSRRGRSSLSLAKSVSTTNIAGHFSDESPLGLRRILSQSTDSLNMRNRALSVESLIDEGAEVIYSELMSDFETDERDFAADSWSLAVDSSFLQQQKKEVMKQQDVIYELIQTELHHVRTLKIMTRLFRTGMLEELQLEPGVVQGLFPCVDELSDIHTRFLSQLLERRRQALCPGSTRNFVIHRLADLLISQFSGPSAERMRKAYSEFCSRHTKALKLYKELYARDKRFQQFIRKVTRSAVLKRHGVQECILLVTQRITKYPVLINRILQHSHGTDEERQDLTTALGLVKELLSNVDQDVHELEKGARLQEIYHRMDPRAQAPVPSKGPFGREELLRRKLIHDGCLLWKTATGRFKDVLMLLMTDVLVFLQEKDQKYIFPALDKPSVVSLQNLIVRDIANQEKGMFLISAAPPEMYEVHTASRDDRSTWVRVIQQSVRVCPSREDFPLIETEDEAYLRRIKMELQQKDKALVELLREKVGLFAEMTHFQVEEDSGGVALPALPRGLFRSESLECPRGERLLQDAIREVEGLKDLLVGPGVELLLTPRDPALLVDPDSGGSTSPGVTANGEARNFNGSIELCRTDSDSSQKDRNGNQLRAPQEEALQRLVNLYGLLHGLQAAVAQQDTLMEARFPEGPERREKLARANSRDGEAGRVGPAPVAPDKQATELALLQRQHALLQEELRRCRRLGEERATEAGNLEARLRESEQARALLEREAEEARRQLAILGQSEPPPAEAPWARRPLDPRRRSLPAGDALYLSFTPPQPSRGHDRLDLSVTIRSVHRPFEDRERQELGSPEERLQDSSDPDTGSEEEGGGRLSPPHSPRDFTRMQDIPEETESRDGEPMVSES

Legend:
[1] = target: T1, vsv-tagged Canis familialis GEF-H1 (guanine nucleotide exchange factor H1) (Canis familialis); experiment: co-IP; HEK293 cells transfected (Fugene6), lysed after 48 h in NP-40 buffer (1% NP-40, 20 mM Tris-HCl pH 7.4, 150 mM NaCl); pre-cleared lysates incubated with anti-vsv or anti-HA antibodies at 4°C overnight, protein G plus agarose; Western blot; control antibodies as negative control
[2] = target: T2, HA-NOD1 (pCI-HA-CARD4 vector); experiment: as above

Binder | binding [1] | binding [2]
B1 | binds | –
B2 | – | binds
